Test results: the supplement of paper PMC10735217
The other results are listed elsewhere or left out. This data set is noisy: repeats of one test often differ as much as different tests do.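 The human kidney-derived cells carry a stably integrated construct of eight TEAD-binding elements driving luciferase, read by luminescence in a drug-repurposing library screen. A compound counts as a hit when its signal is more than five robust Z scores above the plate mean.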

Tested on: HEK293A TEAD-LUC reporter
Assay: TEAD-luciferase reporter activity (YAP activation), robust Z score vs plate; higher = stronger YAP/TEAD activation
Conditions: 24 h

Row | Compound | TEAD-luciferase reporter activity (compound concentration: 200 nM) | TEAD-luciferase reporter activity (compound concentration: 2 uM) | TEAD-luciferase reporter activity (compound concentration: 10 uM)
1 | O=c1n(CC2CO2)c(=O)n(CC2CO2)c(=O)n1CC1CO1 (configuration not stated) [teroxirone] | inactive: -0.092 | inactive: -0.488 | inactive: -0.211
2 | c1cc(-c2nc3cc(-c4ccc5[nH]c(-c6ccncc6)nc5c4)ccc3[nH]2)ccn1 [Ridinilazole] | inactive: -1.94 | inactive: 2.9 | active: 5.67
3 | CC(=O)NCCCCCC(=O)O [zinc acexamate] | inactive: 0.524 | inactive: -0.741 | inactive: 0.00565
4 | Clc1ccccc1OCCNC1CC1 | inactive: 0.505 | inactive: -0.547 | inactive: 0.00373
5 | CCc1ccccc1CN1CCCC12Cc1ccccc1CNC2=O (configuration not stated) | inactive: -0.575 | – | inactive: -1.95
6 | CCC(Br)(CC)C(=O)NC(=O)NC(C)=O | inactive: 1.89 | inactive: -0.587 | inactive: -1.32
7 | Cn1cc(-c2ccc3nnc(C(F)(F)c4ccc5ncccc5c4)n3n2)cn1 | inactive: -0.257 | inactive: -1.08 | inactive: 3.42
8 | CN(C)C(=O)c1cc2cnc(Nc3ccc(N4CCNCC4)cn3)nc2n1C1CCCC1 [ribociclib] | inactive: -1.18 | inactive: 0.531 | inactive: 1.49
9 | CC1(C)S[C@@H]2[C@H](NC(=O)[C@H](NC(=O)c3cnc4cccnc4c3O)c3ccccc3)C(=O)N2[C@H]1C(=O)[O-] | inactive: -0.378 | inactive: 0.558 | inactive: -1.64
10 | C=C(F)c1sc(CNCCCNc2cc(=O)c3ccccc3[nH]2)c(C)c1Br [bederocin] | active: 7.25 | inactive: -0.876 | active: 5.13
11 | CN1CCN(c2cc3c(nn2)Oc2ccccc2N3C)CC1 [Pipofezine] | inactive: -0.648 | – | inactive: -1.41
12 | CC1CC(=O)NN=C1c1ccc2c(NCc3ccccc3)ncnc2c1 (configuration not stated) | inactive: -1.96 | inactive: -0.722 | inactive: -1.32
13 | O=C(Nc1cc(F)c(F)c(F)c1)c1ccc(F)c(S(=O)(=O)N2CCC(O)C(F)C2)c1 (configuration not stated) | inactive: 2.05 | inactive: -1.25 | inactive: 3.14
14 | CN(C)C1CC(c2c[nH]c3ccc(C[C@H]4COC(=O)N4)cc23)C1 (some centres not stated) | inactive: -0.308 | inactive: -0.92 | inactive: 1.52
15 | O=c1cc[nH]c(=S)[nH]1 | inactive: -0.0784 | inactive: -1.49 | inactive: 1.21
16 | CC(=O)/C=C(\C)c1ccc(-c2ccccc2)cc1 [xenipentone] | inactive: -0.908 | inactive: 0.18 | inactive: 2.82
17 | O=C1[C@@H]2[C@H]3CC[C@H](C3)[C@@H]2C(=O)N1CCCCN1CCN(c2ncccn2)CC1 [tandospirone] | inactive: -0.771 | inactive: 1.03 | inactive: 0.459

Row | Compound | TEAD-luciferase reporter activity (compound concentration: 200 nM) | TEAD-luciferase reporter activity (compound concentration: 2 uM) | TEAD-luciferase reporter activity (compound concentration: 10 uM)
18 | O=C1NC(=O)C(c2cnc3ccccn23)=C1c1cn2c3c(cc(F)cc13)CN(C(=O)N1CCCCC1)CC2 | inactive: -1.88 | inactive: -3.83 | inactive: -4.05
19 | O=C(O)[C@H]1O[C@@H](Oc2cc3oc(-c4ccccc4)cc(=O)c3c(O)c2O)[C@H](O)[C@@H](O)[C@@H]1O | inactive: 2.68 | inactive: -0.998 | inactive: -0.788
20 | CN(Cc1cnc2nc(N)nc(N)c2n1)c1ccc(C(=O)N[C@@H](CCC(=O)NCCCCCN)C(=O)O)cc1 | inactive: 1.62 | inactive: -1.17 | inactive: -1.44
21 | Cc1ccc(O)c(Cn2c(NC3CCN(CCN)CC3)nc3c(C)cccc32)n1 | inactive: -1.19 | inactive: 0.0941 | inactive: -0.17
22 | Cc1c(N2CC[C@H](N)C2)c(F)cn2c(=O)c(C(=O)O)cc(C3CC3)c12 | inactive: -0.711 | inactive: -1.16 | inactive: -0.449
23 | CCOc1ccc(C(=O)CCC(=O)N2CC=C(c3ccc(OC)cc3)CC2)cc1 | inactive: -2.01 | inactive: -0.0313 | inactive: 3.84
24 | CC(C)N1C(=O)N(CC2CCOCC2)C[C@]12C[C@H]1CC[C@@H](C2)N1CC[C@H](NC(=O)C1CCC(F)(F)CC1)c1ccccc1 | inactive: -0.649 | inactive: -0.662 | inactive: 0.376
25 | CCOC(=O)NCc1coc2ccc(S(=O)(=O)N(CC(C)C)C[C@@H](O)[C@H](Cc3ccccc3)NC(=O)O[C@H]3CO[C@H]4OCC[C@H]43)cc12 | inactive: -0.927 | inactive: 0.197 | inactive: -1.5
26 | CC(N)C(=O)NC(=O)C(CCCCN)NC(=O)C(Cc1ccccc1)NC(=O)C(Cc1c[nH]c2ccccc12)NC(=O)C(C)NC(=O)C(N)Cc1ccc2ccccc2c1 (configuration not stated) [Pralmorelin] | inactive: -0.145 | inactive: -1.5 | inactive: -0.19
27 | Nc1ncnc2c1ncn2[C@@H]1O[C@H](COP(=O)(O)OP(=O)(O)OP(=O)(O)OP(=O)(O)OC[C@H]2O[C@@H](n3cnc4c(N)ncnc43)[C@H](O)[C@@H]2O)[C@@H](O)[C@H]1O [Diadenosine tetraphosphate] | inactive: -0.849 | – | inactive: 1.66
28 | C[C@@H](Nc1ncnc2[nH]c(-c3ccc(O)cc3)cc12)c1ccccc1 | inactive: -1.15 | inactive: -0.567 | inactive: -1.94
29 | CC1(C)S[C@@H]2[C@H](NC(=O)[C@H](NC(=O)N(CCCO)C(=O)c3ccc(O)c(O)c3)c3ccccc3)C(=O)N2[C@H]1C(=O)[O-] | inactive: -0.686 | inactive: -1.29 | inactive: 1.3
30 | CCc1c(C(=O)NN2CCCCC2)nn(-c2ccc(Cl)cc2Cl)c1-c1ccc(Br)cc1 [Surinabant] | inactive: -1.44 | – | inactive: 1.58
31 | COCCN1CCC(N(Cc2ccc(-c3ccc(C(F)(F)F)cc3)cc2)C(=O)c2ccnc(F)c2)CC1 | inactive: 0.0485 | inactive: -1.33 | inactive: -0.115
32 | COc1ccc2c(c1)C(=O)N(CCc1ccc(S(=O)(=O)NC(=O)NC3CCCCC3)cc1)C(=O)C2(C)C [Gliquidone] | inactive: -0.932 | – | inactive: -1.24
33 | COc1ccc2c(c1)C(=O)N(CCc1ccc(S(=O)(=O)NC(=O)NC3CCCCC3)cc1)C(=O)C2(C)C [gliquidone] | – | inactive: -1.9 | –

Two records picked at random from the list so far:
Row | Compound | TEAD-luciferase reporter activity (compound concentration: 200 nM) | TEAD-luciferase reporter activity (compound concentration: 2 uM) | TEAD-luciferase reporter activity (compound concentration: 10 uM)
25 | CCOC(=O)NCc1coc2ccc(S(=O)(=O)N(CC(C)C)C[C@@H](O)[C@H](Cc3ccccc3)NC(=O)O[C@H]3CO[C@H]4OCC[C@H]43)cc12 | inactive: -0.927 | inactive: 0.197 | inactive: -1.5
16 | CC(=O)/C=C(\C)c1ccc(-c2ccccc2)cc1 [xenipentone] | inactive: -0.908 | inactive: 0.18 | inactive: 2.82
